Paper PMC12509916
Results are given in words; binding and its absence hold for the method and conditions named. For some assays here: Binding seen in cells or lysates may run through a third protein. Some entries that bind do so weakly or less than the wild type. Blank lines part the entries; values can stand above or below the substance they belong to.

Sequences of proteins named here, by UniProt entry; tags and fusion partners are left off. A change or cut given only in a name is not applied to a line headed by its entry. Residues count along the entry.
UniProt Q03181: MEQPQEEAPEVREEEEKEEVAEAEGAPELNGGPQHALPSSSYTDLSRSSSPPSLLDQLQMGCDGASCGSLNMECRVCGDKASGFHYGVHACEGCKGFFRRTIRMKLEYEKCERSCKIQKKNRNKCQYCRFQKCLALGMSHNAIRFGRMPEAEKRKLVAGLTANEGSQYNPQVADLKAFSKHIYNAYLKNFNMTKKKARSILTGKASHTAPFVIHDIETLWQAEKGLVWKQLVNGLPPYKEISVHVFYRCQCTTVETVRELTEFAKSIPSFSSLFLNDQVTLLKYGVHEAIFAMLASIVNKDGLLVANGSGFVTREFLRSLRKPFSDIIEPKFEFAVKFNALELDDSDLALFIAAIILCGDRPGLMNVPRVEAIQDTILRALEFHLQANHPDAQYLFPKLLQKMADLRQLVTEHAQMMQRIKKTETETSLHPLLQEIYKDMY
UniProt P41279: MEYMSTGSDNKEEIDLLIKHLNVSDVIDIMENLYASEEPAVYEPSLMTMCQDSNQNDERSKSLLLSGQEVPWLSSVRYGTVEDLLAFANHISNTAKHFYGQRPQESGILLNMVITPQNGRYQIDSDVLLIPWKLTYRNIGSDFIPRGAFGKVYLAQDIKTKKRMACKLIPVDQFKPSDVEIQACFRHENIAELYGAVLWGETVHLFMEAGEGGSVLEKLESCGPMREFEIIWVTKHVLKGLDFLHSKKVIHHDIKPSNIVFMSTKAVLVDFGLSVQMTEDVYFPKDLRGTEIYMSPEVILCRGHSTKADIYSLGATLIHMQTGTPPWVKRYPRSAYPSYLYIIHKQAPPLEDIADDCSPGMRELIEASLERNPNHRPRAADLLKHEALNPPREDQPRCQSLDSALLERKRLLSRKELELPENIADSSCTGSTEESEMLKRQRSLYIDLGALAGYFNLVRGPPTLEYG
GST-TPL2[30-397]: residues 30-397 of P41279

Key:
[1] = biological target: HA-tagged PPARδ (peroxisome proliferator-activated receptor delta) (UniProt Q03181); experiment: co-IP; SCM1/TPL2 cells transiently transfected with HA-PPARδ plasmid; immunoprecipitation with anti-HA antibody from 800 μg total cell lysate, protein A-Sepharose overnight at 4 °C, immunoblot; cells treated with hypoxia
GST-TPL2[30-397] [2] = biological target: GST-TPL2[30-397] (UniProt P41279); experiment: differential scanning calorimetry (DSC); thermal transition peak of TPL2/PPARD; rightward shift read as binding or complex formation; both purified
GST-TPL2[30-397] [3] = biological target: GST-TPL2[30-397] (UniProt P41279); experiment: pull-down; in vitro GST pulldown; GST-TPL2[30-397] or GST alone as bait, PPARδ as prey; control reactions lacking PPARδ gave no signal
[4] = biological target: FLAG-tagged TPL2 (Tumor Progression Locus 2) (UniProt P41279); experiment: co-IP; SCM1/TPL2-2 cells; immunoprecipitation with anti-FLAG antibody, endogenous PPARδ detected by immunoblot; 800 μg total cell lysate, protein A-Sepharose overnight at 4 °C
[5] = biological target: endogenous PPARδ (human (endogenous in SCM1)) (UniProt Q03181); experiment: co-IP; SCM1 cells, both proteins endogenous; immunoprecipitation with anti-PPARδ antibody, TPL2 detected by immunoblot; 800 μg total cell lysate, protein A-Sepharose overnight at 4 °C

binding [1]: binds
Substance: FLAG-tagged TPL2 (Tumor Progression Locus 2) (from UniProt P41279 1-467) (enzyme)

binding (GST-TPL2[30-397] [2]): binds
binding (GST-TPL2[30-397] [3]): binds
Substance: PPARδ (in vitro GST pulldown and DSC) (from UniProt Q03181 1-441) (receptor)

binding [4]: binds
Substance: endogenous PPARδ (from UniProt Q03181 1-441) (receptor)

binding [5]: binds
Substance: endogenous TPL2 (from UniProt P41279 1-467) (enzyme)
